Results from patent publication US10961196B2, “Compounds for use as an anti-bacterial or anti-fungal agent and as a zinc sensor” (UNIVERSITÄT KONSTANZ, priority 2016, dated 2021).
For part of these data: At least one compound was matched to its structure with a doubt left. Some results were stated once for a whole list of compounds, not compound by compound.

What was measured:
[1] = test system: human embryonic kidney cell line HEK-293; test: Toxicological testing, viability by resazurin reduction after 24 h; assay type: cell-based; conditions: HEK-293, 0-100 μM tested
Description: Example 13: Toxicological Testing with Human Embryonic Kidney Cell Line HEK-293
Compounds 3, 5, and 10 were toxicologically tested with human embryonic kidney cell line HEK-293 at concentrations varying from 0 to 100 μM (cf. FIGS. 1 to 3). The viability was measured by resazurin reduction after 24 h.

S. aureus Mu50 (MRSA) = conditions: cited from earlier work
S. aureus NCTC 8325 = conditions: background section; cited from earlier work
[2] = test system: S. aureus DSM18827 (MRSA); conditions: background section; cited from earlier work
S. aureus USA 300 (MRSA) = conditions: background section; cited from earlier work

| Compound | Concentration at which cell toxicity starts [1] | Concentration to inhibit growth (commercial antibiotics) (S. aureus NCTC 8325) | Concentration to inhibit growth (commercial antibiotics) [2] | other results |
| --- | --- | --- | --- | --- |
| CCCCc1sc2ccccc2c(=O)c1O [Compound 10, 3-hydroxy-2-butyl-thiochromen-4-one] | > 100 µM | – | – | – |
| CN(C)[C@@H]1C(O)=C(C(N)=O)C(=O)[C@@]2(O)C(O)=C3C(=O)c4c(O)cccc4[C@@](C)(O)[C@H]3C[C@@H]12 [tetracycline] | – | – | – | MIC of known antibiotics (S. aureus Mu50 (MRSA); comparison values): 29 µg/mL |
| CC[C@H]1OC(=O)[C@H](C)[C@@H](O[C@H]2C[C@@](C)(OC)[C@@H](O)[C@H](C)O2)[C@H](C)[C@@H](O[C@@H]2O[C@H](C)C[C@H](N(C)C)[C@H]2O)[C@](C)(O)C[C@@H](C)C(=O)[C@H](C)[C@@H](O)[C@]1(C)O [erythromycin] | – | < 2 µM | > 1 mM | – |
| CCCCCCCc1sc2ccccc2c(=O)c1O [Compound 5, 2-heptyl-3-hydroxy-4H-thiochromen-4-one] | > 100 µM | – | – | – |
| CCC[C@@H]1C[C@@H](C(=O)N[C@@H]([C@H]2O[C@H](SC)[C@H](O)[C@@H](O)[C@H]2O)[C@H](C)Cl)N(C)C1 [clindamycin] | – | < 2 µM | > 1 mM | Concentration to inhibit growth (commercial antibiotics) (S. aureus USA 300 (MRSA)): > 1 mM; Concentration to inhibit growth (commercial antibiotics) (S. aureus Mu50 (MRSA); background section, range printed with mixed units): 500 to 1000 µM |
